PubChem BioAssay AID485314 (National Center for Advancing Translational Sciences (NCATS), 2010)
Among all 340,000 compounds or so, about 4,500 (1.3%) were called active. This list was built around the results that the source calls inconclusive (neither active nor inactive); the mix of calls is not that of the screen. Calls follow the shape of the dose curve; as a rule, active = well fitted inhibition curve with a large enough effect; inconclusive = small, poorly fitted or top-dose-only effect, or another doubt; inactive = no such curve, though single readings can be large or run the other way. Potencies beside an inconclusive call are fits to weak or partial responses and may not hold up.
% is scaled to controls: 0 for no effect and ±100 for the full control effect; potency is read from the fitted curve at half-maximal effect.

Each molecule was assayed against DNA polymerase beta (Homo sapiens) (UniProt P06746) (assay: qHTS Assay for Inhibitors of DNA Polymerase Beta). Details: Pol beta primer extension/strand displacement, fluorescence kinetic; activity change, negative = inhibition: at 114 µM (top of the series).
Method in brief: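 Curves were derived by four-parameter Hill fits of normalized qHTS data. The kinetic fluorescent primer-extension read was taken at 0 and 10 min after 50 nM substrate, following a 15 min room-temperature preincubation of 10 nM enzyme with compounds.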
With Cc1ccc(-n2c(=O)c3c(C)c(C(=O)N(C)C)sc3n(CC(=O)N(C)c3ccccc3)c2=O)cc1C the Potency was “inactive”. In the case of O=C(COc1ccc2ccccc2c1)NNC(=O)C(=O)Nc1ccccc1, the Potency is reported as active: 39.8 µM. For CC(C)n1c(NCc2ccc(Cl)cc2)nc2ccccc21, the activity change, negative = inhibition was inconclusive: -39.4% [inhibitor]. In the case of Cc1ccc(S(=O)(=O)N2CCCCC2c2cccnc2)c(C)c1C (centres undefined), the Potency is reported as inconclusive: 0.355 µM [inhibitor, full curve]. O=C(NNC(=O)c1cc(-c2ccco2)nc2ccccc12)c1ccccc1 was tested, and the Potency was inconclusive: 35.5 µM [inhibitor, partial curve]. With O=C(C1CCN(S(=O)(=O)c2cnc[nH]2)CC1)N1CCN(c2ncccn2)CC1 the Potency was inconclusive: 89.1 µM [inhibitor, single point]. For COc1ccccc1-n1cnc2cc(NCc3ccco3)ccc21, the Potency was inconclusive: 0.355 µM [inhibitor, full curve, poor fit]. With COc1ccc(NC(=O)CSc2nnc(N)s2)cc1 the Potency was inconclusive: 1.12 µM [inhibitor, full curve]. In the case of CCc1cccc(C)c1NC(=O)CN1CCN(Cc2ccccc2Cl)S1(=O)=O, the Potency is reported as inconclusive: 3.98 µM [inhibitor, full curve, poor fit]. In the case of O=C(Nc1ccc(-c2nc3cc(Cl)ccc3o2)cc1)c1cc(Br)ccc1Cl, the activity change, negative = inhibition is reported as inconclusive: -44.5% [inhibitor]. COCCCNC(=O)CCCn1c(SCC(=O)c2ccc(Br)cc2)nc2c(sc3ccccc32)c1=O was tested, and the Potency was inconclusive: 10 µM [inhibitor, full curve, poor fit]. For CCCc1cc(=O)oc2cc(C)cc(OCC(=O)NC3CCN(Cc4ccccc4)CC3)c12, the activity change, negative = inhibition was inconclusive: -30.9% [inhibitor]. COc1cccc(CNC(=O)c2cccc(N3CCCS3(=O)=O)c2)c1 was tested, and the Potency was “inactive”. With O=C(CCCOc1ccccc1)Nc1nnc(C2CCCO2)s1 (centres undefined) the Potency was active: 31.6 µM. With Cc1ccc(/C=N/NC(=O)c2ccc(NC(=O)c3ccc(Cl)cc3)cc2)o1 the Potency was inconclusive: 20 µM [inhibitor, full curve, poor fit]. O=C(Cn1c(=O)oc2ccccc21)Nc1n[nH]c(=S)s1 was tested, and the Potency was “inactive”. CC(C)(C)C1CCc2onc(C(=O)Nc3ccc(F)cc3F)c2C1 (centres undefined) was tested, and the Potency was “inactive”. COc1ccc(CNC(=O)C/C(C)=N/NC(=O)COc2ccccc2)cc1 was tested, and the Potency was inconclusive: 35.5 µM [inhibitor, single point]. For COc1cccc(NC(=O)c2oc3ccc(S(=O)(=O)N(C)C4CCCCC4)cc3c2C)c1, the Potency was “inactive”. For N#Cc1c(-c2ccc(Cl)cc2)cc(-c2ccccc2)nc1SCC(=O)O, the Potency was inconclusive: 7.94 µM [inhibitor, full curve, poor fit]. CC1CCc2c(sc(NC(=O)CN3CCN(C(=O)c4ccco4)CC3)c2C#N)C1 (centres undefined) was tested, and the Potency was inconclusive: 1.41 µM [inhibitor, full curve]. In the case of Cc1cc(=O)[nH]c(N/N=C/C2=C(N3CCOCC3)C(=C\c3ccc(Cl)cc3)/CC2)n1, the Potency is reported as inconclusive: 39.8 µM [inhibitor, partial curve]. In the case of Cc1ccc(/C=C/C(=O)c2ccccc(=O)c2O)cc1C, the Potency is reported as inconclusive: 70.8 µM [inhibitor, single point]. Cc1ccc(Cn2c(=O)sc3ccccc3c2=O)cc1 was tested, and the Potency was “inactive”. For COc1cccc(CNC(=O)c2nnn(CC(=O)Nc3ccc4c(c3)OCO4)c2N)c1, the Potency was inconclusive: 20 µM [inhibitor, partial curve]. With Cc1ccc(-c2[nH]nc3c2C(c2ccsc2)C(C#N)=C(N)O3)cc1 (centres undefined) the Potency was “inactive”. O=C1NC(=Nc2ccccc2Cl)S/C1=C\c1cc([N+](=O)[O-])ccc1O was tested, and the Potency was inconclusive: 89.1 µM [inhibitor, single point]. With CCOC(=O)/C=C1\SCC(=O)N1Cc1nnc(-c2ccccc2Br)o1 the Potency was active: 22.4 µM. For COc1ccc(N2CSC3=C(C#N)C(c4cccc(OC)c4OC)CC(=O)N3C2)cc1 (centres undefined), the Potency was “inactive”. With COc1cccc(CNC(=O)Cn2c(=O)ccc3cc(S(=O)(=O)N4CCCC4)ccc32)c1 the Potency was “inactive”. COc1ccc(-c2ccc(SCC(=O)c3cccs3)nn2)cc1 was tested, and the Potency was inconclusive: 0.891 µM [inhibitor, full curve, poor fit]. In the case of CCN(CC)CCCNC(=O)c1cn(CC)c2ccc(S(=O)(=O)N3CCC(C)CC3)cc2c1=O, the Potency is reported as “inactive”. With O=C(Cc1ccccc1)NCC(=O)OCC(=O)c1ccc(F)cc1 the Potency was inconclusive: 5.01 µM [inhibitor, full curve, poor fit]. In the case of O=C(CSc1nn(-c2ccc(F)cc2)c(=S)s1)NC(=O)NCc1ccco1, the Potency is reported as active: 44.7 µM. In the case of Cc1c(Br)c([N+](=O)[O-])nn1CCCC(=O)Nc1sc2c(c1C#N)CCC2, the Potency is reported as inconclusive: 35.5 µM [inhibitor, partial curve]. With COc1ccc(-c2cc(=O)oc3cc(OC(C)C(=O)O)ccc23)cc1 (centres undefined) the Potency was “inactive”. In the case of Cc1ccc(C2(C)NC(=O)N(CC(=O)c3ccc(Cl)s3)C2=O)cc1 (centres undefined), the Potency is reported as active: 20 µM. For COc1ccc(Br)cc1CNC(=O)Cn1nc(C)n2c(cc3cc(F)ccc32)c1=O, the Potency was “inactive”. For CCOC(=O)c1cccc(-c2ccc(C=O)o2)c1, the Potency was inconclusive: 3.55 µM [inhibitor, single point]. For COc1ccc(CCNC(=O)c2ccc3c(c2)nc(C)n3-c2ccc(Br)cc2)cc1OC, the Potency was inconclusive: 89.1 µM [inhibitor, single point]. COc1ccc(/C=N/NC(=O)c2cc(C3CC3)[nH]n2)cc1OC was tested, and the Potency was inconclusive: 10 µM [inhibitor, single point]. For CCN(CCO)c1ncnc2c1sc1nc(C(C)C)c3c(c12)CC(C)(C)OC3, the Potency was “inactive”. With Cc1ccc(NC2=C(NCCO)C(=O)c3ccccc3C2=O)cc1 the Potency was “inactive”. Fc1ccc(-c2c[nH]c(=S)n2Cc2ccccc2)cc1 was tested, and the Potency was “inactive”. COc1ccccc1-n1cc(C(=O)NCC(=O)N2CCN(c3ccccn3)CC2)c2ccccc2c1=O was tested, and the Potency was inconclusive: 0.282 µM [inhibitor, full curve]. For CC(=O)NS(=O)(=O)c1ccc(NC(=O)/C=C/c2cn(-c3ccccc3)nc2-c2ccccc2)cc1, the Potency was inconclusive: 22.4 µM [inhibitor, partial curve, poor fit]. For COc1ccc(CN=C(Nc2ccccc2)SC2CC(=O)N(C)C2=O)cc1 (centres undefined), the Potency was inconclusive: 79.4 µM [inhibitor, single point]. For O=C(NNc1ccccc1[N+](=O)[O-])Nc1ccccc1, the Potency was inconclusive: 44.7 µM [inhibitor, partial curve, poor fit]. In the case of Cc1ccc(-n2nnc3c(=O)n(CC(=O)NCc4ccco4)cnc32)cc1, the Potency is reported as inconclusive: 39.8 µM [inhibitor, single point]. COc1ccc(/C=C2/SC(=O)N(CCC(=O)Nc3ccc(S(=O)(=O)Nc4nccs4)cc3)C2=O)cc1 was tested, and the Potency was active: 22.4 µM. CN(C)c1ccc(CNC(=O)C2CCN(c3nnc(-n4cccc4)s3)CC2)cc1 was tested, and the Potency was inconclusive: 20 µM [inhibitor, partial curve, poor fit]. For N#Cc1cc2nc(O)c(O)nc2cc1[N+](=O)[O-], the Potency was inconclusive: 35.5 µM [inhibitor, partial curve]. In the case of CN(Cc1ccccc1)S(=O)(=O)c1ccc2[nH]c(=O)oc2c1, the Potency is reported as “inactive”. Cc1cccc(C(=O)/C=C2/c3ccccc3CC(C)(C)N2C)c1 was tested, and the Potency was inconclusive: 89.1 µM [inhibitor, single point]. With Cc1ccc(S(=O)(=O)n2[nH]c(=O)cc2N)cc1 the Potency was inconclusive: 79.4 µM [inhibitor, single point]. For CCCn1c2ccccc2c2cnn(CC(=O)NCCc3ccc(S(N)(=O)=O)cc3)c(=O)c21, the Potency was inconclusive: 100 µM [inhibitor, partial curve, poor fit]. Nn1c(Nc2ccccc2)nc2ccccc21 was tested, and the Potency was inconclusive: 89.1 µM [inhibitor, single point]. In the case of O=C(N/N=C/c1ccc(-c2ccc(S(=O)(=O)Nc3ncccn3)cc2)o1)c1cc2ccccc2cc1O, the Potency is reported as active: 12.6 µM. With CC1CCCCN1CCNC(=O)c1ccc(Cn2c(SCc3ccccc3)nc3cccnc32)cc1 (centres undefined) the Potency was “inactive”. In the case of COc1ccc2nc3sc(C(=O)NCCc4ccc(Cl)cc4)cc3cc2c1, the Potency is reported as inconclusive: 1.12 µM [inhibitor, full curve, poor fit]. C=CCOc1ccc2ccccc2c1CNc1ncn[nH]1 was tested, and the Potency was inconclusive: 50.1 µM [inhibitor, partial curve]. O=C(Cc1ccc(Cl)cc1)Nc1ccc(N2CCN(C(=O)c3ccco3)CC2)cc1 was tested, and the Potency was inconclusive: 79.4 µM [inhibitor, single point]. With C=Cc1ccc(CN2C(=O)N(c3ccc(C)c(C)c3)S(=O)(=O)c3ccccc32)cc1 the Potency was “inactive”. O=C1c2ccccc2C(=O)N1CCC(c1ccc(F)cc1)c1ccco1 (centres undefined) was tested, and the Potency was inconclusive: 8.91 µM [inhibitor, full curve]. With O=C(CN1CCOCC1)OCCCc1ccccc1 the Potency was inconclusive: 79.4 µM [inhibitor, single point]. CCOC(=O)c1c(-c2cccs2)csc1NC(C)=O was tested, and the Potency was inconclusive: 79.4 µM [inhibitor, single point]. For CCC1=C(c2ccc(C)cc2)S(=O)(=O)N=C1N1CCC(C(=O)Nc2ccccc2C(=O)OC)CC1, the Potency was “inactive”. In the case of Cn1c(/C(C#N)=C(\O)c2cc(Cl)sc2Cl)nc2ccccc21, the Potency is reported as inconclusive: 0.282 µM [inhibitor, full curve, poor fit]. CCOCc1cc(CN2CCC(n3nccc3NC(=O)C3CC3)CC2)ccc1OC was tested, and the Potency was inconclusive: 11.2 µM [inhibitor, full curve].
